Source: PubChem BioAssay AID1224826 (NIAID, 2016)
Shown is a random part of about 17,000 reagents tested. About 1,110 of them (6.6%) count as active. 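Active means lowered or raised reporter signal; replicate intensities are raw and not normalised per plate.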 Unmarked entries are inactive.

- Aim: 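Regulators of Tlr4 signalling leading to Tnf-alpha expression in macrophages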 (primary screen)
- Cells: RAW264.7 G9 macrophages from mouse bearing reporters for p65 (GFP) and the Tnf promoter (mCherry)
- Knock-down reagent: siRNA pool against mouse genes, 100 nM
- Timing: 16 h of LPS stimulation, after 2 days of siRNA transfection
- Treatment: bacterial lipopolysaccharide (Salmonella minnesota R595), 10 ng/ml
- Detection: 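Nuclear mCherry signal of the Tnf promoter reporter measured by imaging after background removal, scaled to each plate median and turned into robust z-scores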
- Direction: Tnf reporter robust z-score: higher = stronger Tnf promoter reporter signal after LPS; Tnf reporter intensity: higher = stronger Tnf promoter reporter signal
- Hit rule: 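Called active when robust z-score is at most -1.3, matching the median of the Tlr4 knock-down control, or over 3; control wells and wells with under 50 cells never active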
- Meaning of the calls: active = Tnf reporter clearly lowered or raised; inactive = no clear change in Tnf reporter

| Gene | Tnf reporter robust z-score | fewer than 50 cells in well | Tnf reporter intensity, replicate 1 | Tnf reporter intensity, replicate 2 |
| --- | --- | --- | --- | --- |
| Galt (GeneID 14430) | -0.37 | enough cells in well | 231 | 201 |
| Mrpl53 (GeneID 68499) | 3.29 (active) | enough cells in well | 377 | 280 |
| Tfdp2 (GeneID 211586) | 0.11 | enough cells in well | 149 | 180 |
| Nr1i2 (GeneID 18171) | 0.91 | enough cells in well | 273 | 270 |
| Ctnnbl1 (GeneID 66642) | 0.91 | enough cells in well | 331 | 241 |
| Rbm3 (GeneID 19652) | 1.26 | enough cells in well | 201 | 163 |
| Cenps (GeneID 69928) | 2.55 | enough cells in well | 404 | 134 |
| Plch2 (GeneID 269615) | -0.6 | enough cells in well | 106 | 155 |
| Grn (GeneID 14824) | 0.35 | enough cells in well | 214 | 225 |
| Ero1a (GeneID 50527) | 0.59 | enough cells in well | 230 | 326 |
| Sowahb (GeneID 78088) | – | fewer than 50 cells per well; well left out of calls | 180 | 164 |
| Acot2 (GeneID 171210) | – | fewer than 50 cells per well; well left out of calls | 218 | 121 |
| Or8b41 (GeneID 258474) | 1.04 | enough cells in well | 120 | 175 |
| Taar2 (GeneID 209512) | 0.1 | enough cells in well | 250 | 256 |
| Tsga13 (GeneID 116732) | -0.3 | enough cells in well | 109 | 77.9 |
| Trim21 (GeneID 20821) | -0.87 | enough cells in well | 154 | 172 |
| Sh2d7 (GeneID 244885) | – | fewer than 50 cells per well; well left out of calls | 125 | 65.5 |
| Ccdc158 (GeneID 320696) | -0.72 | enough cells in well | 163 | 48.1 |
| Sfxn2 (GeneID 94279) | -0.57 | enough cells in well | 85.7 | 80.3 |
| Mid2 (GeneID 23947) | -0.34 | enough cells in well | 192 | 110 |
| Fap (GeneID 14089) | -0.65 | enough cells in well | 187 | 111 |
| Timcc (GeneID 66488) | – | fewer than 50 cells per well; well left out of calls | 222 | 70.9 |
| Slc26a7 (GeneID 208890) | -0.62 | enough cells in well | 90.3 | 68.7 |
| Mis12 (GeneID 67139) | – | fewer than 50 cells per well; well left out of calls | 188 | 57.1 |
| Nme4 (GeneID 56520) | -0.99 | enough cells in well | 133 | 105 |
| Dst (GeneID 13518) | 0.04 | enough cells in well | 187 | 118 |
| Npc1 (GeneID 18145) | 0.39 | enough cells in well | 286 | 196 |
| Ndufaf4 (GeneID 68493) | -1.4 (active) | enough cells in well | 156 | 35.8 |
| Ube2i (GeneID 22196) | 0.03 | enough cells in well | 241 | 220 |
| Mzf1 (GeneID 109889) | -0.13 | enough cells in well | 243 | 192 |
| Kash5 (GeneID 384619) | -1.48 (active) | enough cells in well | 98.9 | 66.5 |
| Vmn1r63 (GeneID 81017) | 0.48 | enough cells in well | 153 | 134 |
| Zpbp2 (GeneID 69376) | -0.53 | enough cells in well | 167 | 72.6 |
| Aco1 (GeneID 11428) | -0.17 | enough cells in well | 131 | 237 |

Next part; the last 9 above are carried over.
| Gene | Tnf reporter robust z-score | fewer than 50 cells in well | Tnf reporter intensity, replicate 1 | Tnf reporter intensity, replicate 2 |
| --- | --- | --- | --- | --- |
| Dst (GeneID 13518) | 0.04 | enough cells in well | 187 | 118 |
| Npc1 (GeneID 18145) | 0.39 | enough cells in well | 286 | 196 |
| Ndufaf4 (GeneID 68493) | -1.4 (active) | enough cells in well | 156 | 35.8 |
| Ube2i (GeneID 22196) | 0.03 | enough cells in well | 241 | 220 |
| Mzf1 (GeneID 109889) | -0.13 | enough cells in well | 243 | 192 |
| Kash5 (GeneID 384619) | -1.48 (active) | enough cells in well | 98.9 | 66.5 |
| Vmn1r63 (GeneID 81017) | 0.48 | enough cells in well | 153 | 134 |
| Zpbp2 (GeneID 69376) | -0.53 | enough cells in well | 167 | 72.6 |
| Aco1 (GeneID 11428) | -0.17 | enough cells in well | 131 | 237 |
| Slamf9 (GeneID 98365) | 3.32 (active) | enough cells in well | 209 | 220 |
| Cyth3 (GeneID 19159) | -1.16 | enough cells in well | 161 | 107 |
| Gmps (GeneID 229363) | -0.38 | enough cells in well | 187 | 182 |
| Ttll9 (GeneID 74711) | 6.36 (active) | enough cells in well | 390 | 216 |
| Ins2 (GeneID 16334) | -0.03 | enough cells in well | 237 | 149 |
| Neu4 (GeneID 241159) | -0.88 | enough cells in well | 169 | 69.1 |
| Isl1 (GeneID 16392) | 0.34 | enough cells in well | 275 | 162 |
| Map3k9 (GeneID 338372) | 0.23 | enough cells in well | 187 | 196 |
| Nat8f5 (GeneID 69049) | 1.07 | enough cells in well | 212 | 257 |
| Taf1d (GeneID 75316) | -1.36 (active) | enough cells in well | 148 | 34.8 |
| Tmx1 (GeneID 72736) | 0 | enough cells in well | 119 | 61.6 |
| Psmd10 (GeneID 53380) | 0.1 | enough cells in well | 134 | 134 |
| Cbln4 (GeneID 228942) | 2.29 | enough cells in well | 328 | 263 |
| Dact2 (GeneID 240025) | -0.47 | enough cells in well | 121 | 166 |
| Lce1f (GeneID 67828) | – | fewer than 50 cells per well; well left out of calls | 169 | 48.9 |
| Tent4a (GeneID 210106) | 0.17 | enough cells in well | 269 | 195 |
| Or8b1c (GeneID 258800) | 2.78 | enough cells in well | 202 | 213 |
| Slain1 (GeneID 105439) | 0.63 | enough cells in well | 206 | 242 |
| Adgrb3 (GeneID 210933) | 0.66 | enough cells in well | 267 | 352 |
| Cdkn2b (GeneID 12579) | -0.36 | enough cells in well | 196 | 118 |
| H13 (GeneID 14950) | 0.04 | enough cells in well | 320 | 118 |
| Gm4884 (GeneID 233164) | -0.45 | enough cells in well | 183 | 53.8 |
| Krtcap3 (GeneID 69815) | 0.02 | enough cells in well | 244 | 97.9 |
| Psap (GeneID 19156) | -0.02 | enough cells in well | 218 | 213 |
| Ctla2a (GeneID 13024) | -1.06 | enough cells in well | 123 | 109 |
| Tmem50a (GeneID 71817) | – | fewer than 50 cells per well; well left out of calls | 244 | 63.6 |
| Abca1 (GeneID 11303) | 2.04 | enough cells in well | 274 | 257 |
| Btd (GeneID 26363) | -0.64 | enough cells in well | 101 | 144 |
| Or5ap2 (GeneID 258573) | 1.09 | enough cells in well | 257 | 205 |
| Cdk16 (GeneID 18555) | 0.16 | enough cells in well | 165 | 209 |
| Aqp3 (GeneID 11828) | 0.05 | enough cells in well | 168 | 175 |
| Ppp2r5b (GeneID 225849) | 0.83 | enough cells in well | 270 | 286 |
| Crmp1 (GeneID 12933) | -0.01 | enough cells in well | 168 | 192 |
| Syt6 (GeneID 54524) | 0.15 | enough cells in well | 130 | 92.3 |
| Tbc1d4 (GeneID 210789) | – | fewer than 50 cells per well; well left out of calls | 105 | 140 |
| B3gnt7 (GeneID 227327) | 0.77 | enough cells in well | 231 | 192 |
| Csf2rb2 (GeneID 12984) | -0.16 | enough cells in well | 231 | 182 |
| Zbtb25 (GeneID 109929) | -0.31 | enough cells in well | 190 | 225 |
| Nudt16 (GeneID 75686) | – | fewer than 50 cells per well; well left out of calls | 307 | 76 |
| P2ry14 (GeneID 140795) | -0.69 | enough cells in well | 138 | 274 |
| Lsm14a (GeneID 67070) | – | fewer than 50 cells per well; well left out of calls | 235 | 85.7 |
